Test results reported in paper doi:10.1101/2022.01.25.477707 (bioRxiv, 2022).
No constants are given. Whether binding was seen depends on the method and setting. Binding seen in cells or lysates may run through a third protein. These calls come from enrichment with a bait or labelling near it, and not all partners need be listed.

Biological target: G5_(845-1508)-WT-TAP (human) (UniProt Q8TEQ6)
Assay: affinity purification with mass spectrometry

- binding: binds
B1: Gemin5 endogenous protein (natural protein, human (endogenous in HEK293), UniProt Q8TEQ6 1-1508, looked up)
chain: MGQEPRTLPPSPNWYCARCSDAVPGGLFGFAARTSVFLVRVGPGAGESPGTPPFRVIGELVGHTERVSGFTFSHHPGQYNLCATSSDDGTVKIWDVETKTVVTEHALHQHTISTLHWSPRVKDLIVSGDEKGVVFCYWFNRNDSQHLFIEPRTIFCLTCSPHHEDLVAIGYKDGIVVIIDISKKGEVIHRLRGHDDEIHSIAWCPLPGEDCLSINQEETSEEAEITNGNAVAQAPVTKGCYLATGSKDQTIRIWSCSRGRGVMILKLPFLKRRGGGIDPTVKERLWLTLHWPSNQPTQLVSSCFGGELLQWDLTQSWRRKYTLFSASSEGQNHSRIVFNLCPLQTEDDKQLLLSTSMDRDVKCWDIATLECSWTLPSLGGFAYSLAFSSVDIGSLAIGVGDGMIRVWNTLSIKNNYDVKNFWQGVKSKVTALCWHPTKEGCLAFGTDDGKVGLYDTYSNKPPQISSTYHKKTVYTLAWGPPVPPMSLGGEGDRPSLALYSCGGEGIVLQHNPWKLSGEAFDINKLIRDTNSIKYKLPVHTEISWKADGKIMALGNEDGSIEIFQIPNLKLICTIQQHHKLVNTISWHHEHGSQPELSYLMASGSNNAVIYVHNLKTVIESSPESPVTITEPYRTLSGHTAKITSVAWSPHHDGRLVSASYDGTAQVWDALREEPLCNFRGHRGRLLCVAWSPLDPDCIYSGADDFCVHKWLTSMQDHSRPPQGKKSIELEKKRLSQPKAKPKKKKKPTLRTPVKLESIDGNEEESMKENSGPVENGVSDQEGEEQAREPELPCGLAPAVSREPVICTPVSSGFEKSKVTINNKVILLKKEPPKEKPETLIKKRKARSLLPLSTSLDHRSKEELHQDCLVLATAKHSRELNEDVSADVEERFHLGLFTDRATLYRMIDIEGKGHLENGHPELFHQLMLWKGDLKGVLQTAAERGELTDNLVAMAPAAGYHVWLWAVEAFAKQLCFQDQYVKAASHLLSIHKVYEAVELLKSNHFYREAIAIAKARLRPEDPVLKDLYLSWGTVLERDGHYAVAAKCYLGATCAYDAAKVLAKKGDAASLRTAAELAAIVGEDELSASLALRCAQELLLANNWVGAQEALQLHESLQGQRLVFCLLELLSRHLEEKQLSEGKSSSSYHTWNTGTEGPFVERVTAVWKSIFSLDTPEQYQEAFQKLQNIKYPSATNNTPAKQLLLHICHDLTLAVLSQQMASWDEAVQALLRAVVRSYDSGSFTIMQEVYSAFLPDGCDHLRDKLGDHQSPATPAFKSLEAFFLYGRLYEFWWSLSRPCPNSSVWVRAGHRTLSVEPSQQLDTASTEETDPETSQPEPNRPSELDLRLTEEGERMLSTFKELFSEKHASLQNSQRTVAEVQETLAEMIRQHQKSQLCKSTANGPDKNEPEVEAEQPLCSSQSQCKEEKNEPLSLPELTKRLTEANQRMAKFPESIKAWPFPDVLECCLVLLLIRSHFPGCLAQEMQQQAQELLQKYGNTKTYRRHCQTFCM
